Test results as given in PMC7865655 (Molecules, 2021).
Some peptides are written in HELM: one residue between dots, names in brackets for other building blocks, links after the first $.

Test: peptide synthesis
Details: conjugation step

Row | Substance | conjugation yield
1 | 1,3,7-trimethyl-5-indolylstyryl-2,6-diethyl-8-(4-phenoxymethyltriazole K(N3)LARLLT)-BODIPY | 70%
2 | PEPTIDE1{[K(trz-BODIPY1)].L.A.R.L.L.T.[am]}$$$$V2.0 | 82%
3 | PEPTIDE1{[K(trz-BODIPY2)].[dL].[dA].[dR].[dL].[dL].[dT]}$PEPTIDE1,PEPTIDE1,1:R1-7:R2$$$V2.0 | 80%
